The other results are listed elsewhere or left out. The calls rarely recur for the same compound in another form.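 In K562 cells expressing nanoluciferase-fused kinases, luminescence was recorded at 4 h intervals between 2 and 18 h, normalized as percent of control with DMSO at 100% and a positive control at 0%. A significant (2 sigma) signal drop marks a time point as decreased. The authors' rule for a hit is not shown and takes in more than the number of time points.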
Assays:
Experiment in all cases: number of time points (of 5) at which kinase-Nluc abundance scored as decreased, DMSO-normalised (count); higher = more persistent destabilization
Details in all cases: K562; 2-18 h
[1] = biological target: CSNK1A1 (UniProt P48729)
[2] = biological target: CSNK1D (UniProt P48730)
[3] = biological target: DDR1 (UniProt Q08345)
[4] = biological target: DYRK1B (UniProt Q9Y463)
[5] = biological target: DYRK2 (UniProt Q92630)
[6] = biological target: EGFR (UniProt P00533)
[7] = biological target: EGFR_G719S (UniProt P00533)
[8] = biological target: EGFR_G719S_T790M (UniProt P00533)
[9] = biological target: EGFR_L718V (UniProt P00533)
[10] = biological target: EGFR_L858R (UniProt P00533)

The chains behind the UniProt entries cited, without tags or fusion partners. Where a name states a change or a piece, a line headed by the entry shows the natural chain unless it says otherwise.
UniProt P48729: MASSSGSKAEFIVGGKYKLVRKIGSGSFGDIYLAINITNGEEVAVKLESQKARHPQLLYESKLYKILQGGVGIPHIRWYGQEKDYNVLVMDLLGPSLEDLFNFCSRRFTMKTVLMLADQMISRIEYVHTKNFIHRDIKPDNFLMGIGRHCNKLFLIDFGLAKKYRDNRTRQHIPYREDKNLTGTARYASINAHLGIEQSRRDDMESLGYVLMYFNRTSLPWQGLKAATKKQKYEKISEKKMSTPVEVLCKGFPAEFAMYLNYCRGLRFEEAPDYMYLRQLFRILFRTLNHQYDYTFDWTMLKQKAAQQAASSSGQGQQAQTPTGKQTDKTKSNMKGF
UniProt P48730: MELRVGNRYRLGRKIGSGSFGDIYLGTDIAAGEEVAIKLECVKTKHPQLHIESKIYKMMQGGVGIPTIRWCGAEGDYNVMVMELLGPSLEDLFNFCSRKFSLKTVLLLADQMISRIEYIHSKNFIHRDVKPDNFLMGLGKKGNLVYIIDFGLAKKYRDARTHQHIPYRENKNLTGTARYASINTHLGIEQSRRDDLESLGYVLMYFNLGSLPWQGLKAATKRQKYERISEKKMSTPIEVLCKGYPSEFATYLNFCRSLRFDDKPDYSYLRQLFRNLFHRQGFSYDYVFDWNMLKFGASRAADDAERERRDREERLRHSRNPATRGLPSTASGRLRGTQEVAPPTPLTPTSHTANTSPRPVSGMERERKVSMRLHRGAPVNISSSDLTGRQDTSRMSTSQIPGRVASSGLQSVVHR
UniProt Q08345: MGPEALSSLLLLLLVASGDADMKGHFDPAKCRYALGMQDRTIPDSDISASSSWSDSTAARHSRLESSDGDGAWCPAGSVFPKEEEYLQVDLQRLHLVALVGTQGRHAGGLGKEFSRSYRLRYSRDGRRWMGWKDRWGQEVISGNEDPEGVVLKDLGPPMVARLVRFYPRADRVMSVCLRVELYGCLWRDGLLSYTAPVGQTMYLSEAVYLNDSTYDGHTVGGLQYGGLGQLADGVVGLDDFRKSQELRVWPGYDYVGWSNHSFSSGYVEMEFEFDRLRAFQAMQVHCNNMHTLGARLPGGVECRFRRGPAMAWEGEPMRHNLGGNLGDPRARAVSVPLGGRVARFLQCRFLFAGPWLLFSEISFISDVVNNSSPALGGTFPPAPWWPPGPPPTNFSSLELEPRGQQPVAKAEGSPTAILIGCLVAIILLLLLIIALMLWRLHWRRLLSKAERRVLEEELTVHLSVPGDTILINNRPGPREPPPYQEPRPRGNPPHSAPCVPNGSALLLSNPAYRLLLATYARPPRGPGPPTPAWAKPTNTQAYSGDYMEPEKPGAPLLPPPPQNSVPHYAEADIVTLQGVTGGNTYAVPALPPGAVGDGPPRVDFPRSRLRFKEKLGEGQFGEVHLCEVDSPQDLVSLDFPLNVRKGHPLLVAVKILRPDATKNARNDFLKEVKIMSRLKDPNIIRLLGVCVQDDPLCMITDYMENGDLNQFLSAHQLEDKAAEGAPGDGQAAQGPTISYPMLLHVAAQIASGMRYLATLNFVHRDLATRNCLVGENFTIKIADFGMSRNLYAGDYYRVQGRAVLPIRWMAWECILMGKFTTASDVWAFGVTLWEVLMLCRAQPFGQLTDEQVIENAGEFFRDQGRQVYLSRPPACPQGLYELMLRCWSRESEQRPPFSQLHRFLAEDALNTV
UniProt Q9Y463, whole entry, looked up: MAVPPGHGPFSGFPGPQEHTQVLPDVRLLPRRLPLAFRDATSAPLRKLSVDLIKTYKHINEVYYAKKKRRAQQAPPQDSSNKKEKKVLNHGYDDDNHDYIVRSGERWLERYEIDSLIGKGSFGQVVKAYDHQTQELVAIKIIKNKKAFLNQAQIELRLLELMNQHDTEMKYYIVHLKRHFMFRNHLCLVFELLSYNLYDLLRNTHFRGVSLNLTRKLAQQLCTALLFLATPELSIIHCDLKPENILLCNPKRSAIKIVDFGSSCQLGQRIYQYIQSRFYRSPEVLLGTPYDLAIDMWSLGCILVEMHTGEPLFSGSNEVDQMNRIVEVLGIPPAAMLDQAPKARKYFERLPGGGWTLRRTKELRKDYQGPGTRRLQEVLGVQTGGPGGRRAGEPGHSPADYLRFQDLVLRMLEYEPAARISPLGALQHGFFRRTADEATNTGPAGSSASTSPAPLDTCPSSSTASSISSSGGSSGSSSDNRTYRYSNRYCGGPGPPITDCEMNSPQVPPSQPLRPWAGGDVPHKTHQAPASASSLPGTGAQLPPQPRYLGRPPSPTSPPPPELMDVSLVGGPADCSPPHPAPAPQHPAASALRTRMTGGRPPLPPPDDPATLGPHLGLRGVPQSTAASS
UniProt Q92630: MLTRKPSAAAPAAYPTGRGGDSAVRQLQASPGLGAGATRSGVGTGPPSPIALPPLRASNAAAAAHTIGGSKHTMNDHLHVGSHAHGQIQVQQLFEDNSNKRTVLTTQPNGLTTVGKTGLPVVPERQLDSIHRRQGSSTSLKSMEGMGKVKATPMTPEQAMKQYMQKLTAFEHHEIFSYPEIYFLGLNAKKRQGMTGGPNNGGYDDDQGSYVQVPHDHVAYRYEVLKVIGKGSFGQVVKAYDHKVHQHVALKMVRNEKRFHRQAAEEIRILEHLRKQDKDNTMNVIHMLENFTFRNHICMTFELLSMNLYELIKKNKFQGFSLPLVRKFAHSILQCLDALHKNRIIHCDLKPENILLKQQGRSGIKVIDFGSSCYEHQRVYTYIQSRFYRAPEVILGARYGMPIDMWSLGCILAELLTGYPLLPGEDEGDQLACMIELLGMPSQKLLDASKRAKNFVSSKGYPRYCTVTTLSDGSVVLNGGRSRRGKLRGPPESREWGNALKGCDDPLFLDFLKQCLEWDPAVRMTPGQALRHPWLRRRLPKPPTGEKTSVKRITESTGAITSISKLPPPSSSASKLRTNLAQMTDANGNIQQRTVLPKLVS

Measured: number of time points

C[C@@H]1CN(Cc2cn[nH]c2-c2ccc(C#N)cc2)CCN1c1ccc(C(F)(F)F)cn1 (2.5 µM)
0: all assays above

Oc1ccc2ccccc2c1SSc1c(O)ccc2ccccc12 (10 µM)
0: all assays above

Cc1nc(NC(=O)N2CCC[C@H]2C(N)=O)sc1-c1csc(C(C)(C)C)n1 (10 µM)
0: all assays above

Cc1cc(Nc2ncc(Cl)c(Nc3ccccc3S(=O)(=O)C(C)C)n2)c(OC(C)C)cc1C1CCN(CC(=O)NCCNc2cccc3c2C(=O)N(C2CCC(=O)NC2=O)C3=O)CC1 (stereo not given) (10 µM)
0: all assays above

C=CC(=O)Nc1cccc(Oc2nc(Nc3ccc(N4CCN(C)CC4)cc3)ncc2Cl)c1 (2.5 µM)
0: all assays above

O=C(CCc1ccc2n1[B-](F)(F)[N+]1=C(c3ccc[nH]3)C=CC1=C2)ON1C(=O)CCC1=O [Py-BODIPY-NHS ester] (2.5 µM)
0: all assays above

COc1cccc2cc(-c3nc([C@H]4CC[C@H](C(=O)O)CC4)n4ncnc(N)c34)[nH]c12 (2.5 µM)
1: [8] | [9]
0: [6] | [10]
3: [1] | [7]
4: [5]
2: all other assays above

O=c1cc(N2CCOCC2)oc2c1ccc1ccccc12 (2 µM)
0: all assays above

O=C(Nc1nc2cccc(-c3ccc(CN4CCS(=O)(=O)CC4)cc3)n2n1)C1CC1 [Filgotinib] (2.5 µM)
0: all assays above

CNS(=O)(=O)C[C@H]1CC[C@H](N(C)c2[nH]cnc3nccc2-3)CC1 [Oclacitinib (maleate)] (10 µM)
0: all assays above

CC(=O)Nc1nc(C)c(-c2ccc(Cl)c(S(=O)(=O)NCCO)c2)s1 (10 µM)
2: [3] | [8]
3: [5]
0: all other assays above

CS(=O)(=O)N1CCN(Cc2cn3cc(-c4cnc(N)nc4)nc(N4CCOCC4)c3n2)CC1 (10 µM)
1: [3]
3: [7]
0: all other assays above

CC(C)Cn1cc(C#N)c2cc(Oc3ccc(NC(=O)[C@@H]4CCCN4)cc3)ccc21 (10 µM)
0: all assays above

Cc1cc(=O)[nH]c(=S)[nH]1 [Methylthiouracil] (10 µM)
0: all assays above

CNC[C@@H](NC(=O)c1ccc(-c2nc([C@H]3CC[C@H](O)[C@@H](F)C3)cnc2N)cc1F)c1cc(F)cc(Br)c1 [Rineterkib] (10 µM)
0: all assays above

CCn1c2ccccc2c2cc(Nc3ccnc(NCCCN4CCOCC4)n3)ccc21 (2.5 µM)
0: all assays above

CC[C@H](C)[C@H](NC(=O)[C@H](CCCCN)NC(=O)[C@H](CC(C)C)NC(=O)[C@@H]1CCCN1C(=O)[C@H](CCC(=O)O)NC(=O)[C@H](Cc1ccc(O)cc1)NC(=O)[C@@H](NC(=O)[C@H](CO)NC(=O)CNC(=O)[C@H](CO)NC(=O)[C@H](CCCN=C(N)N)NC(=O)[C@H](CCCCN)NC(=O)[C@@H](NC(=O)[C@@H](N)CCCN=C(N)N)[C@@H](C)O)C(C)C)C(=O)O [Malantide] (10 µM)
0: all assays above

NC(=O)c1cccc2c(N[C@H](CN3CCC3)c3ccc(Cl)c(C(F)(F)F)c3)ncnc12 (10 µM)
0: all assays above

CNCCOc1ccccc1C(C)(C)Nc1nccn(-c2cc(C(=O)NC3CC3)ccc2C)c1=O [p38α inhibitor 2] (10 µM)
0: all assays above

COc1cc(-c2cnc(N)c(-c3ccc(NC(=O)c4cn(CC5CCOCC5)cc(-c5ccc(C)cn5)c4=O)cc3F)c2)ccc1OC[C@H]1COCCO1 [DS-1205b (free base)] (10 µM)
0: all assays above

CNC(=O)c1c(C)oc2cc(Oc3ncnc4cc(OC)c(OC)cc34)ccc12 [Fruquintinib] (10 µM)
0: all assays above

O=C(Nc1nccs1)C(c1cc(F)ccc1O)N1Cc2ccccc2C1=O (stereo not given) (10 µM)
0: all assays above

CCOC(=O)C1=C[C@]2(CC)CCCN3CCc4c(n1c1ccccc41)[C@@H]32 [Vinpocetine] (10 µM)
0: all assays above

Cc1cccc(-c2[nH]c(C(C)(C)C)nc2-c2ccc3c(c2)OCO3)n1 (2.5 µM)
0: all assays above

O=C(Nc1nccs1)C(c1cc(F)ccc1O)N1Cc2ccc(-c3ccc(N4CCNCC4)cc3)cc2C1=O (racemic) (10 µM)
1: [3]
0: all other assays above

Cc1ccc(-c2csc(Cn3nc(CC4OCCCO4)c4ccccc4c3=O)n2)cc1 (10 µM)
0: all assays above

NC(=O)c1nc(-c2c(F)cccc2Cl)oc1Nc1ccc(C(=O)N2CCOCC2)cc1 (10 µM)
0: all assays above

CC(C)=C/C=C1\O[C@@H]2CC(C)=CC(=O)[C@@H]2[C@]1(C)O [Bisabolangelone] (10 µM)
0: all assays above

CNS(=O)(=O)Nc1nccc(Cc2c(C)c3ccc(Oc4ncccn4)cc3oc2=O)c1F (10 µM)
2: [5] | [10]
0: [1] | [4] | [6]
1: all other assays above

O=c1sn(-c2cccc3ccccc23)c(=O)n1Cc1ccccc1 [Tideglusib] (10 µM)
0: all assays above

COc1cc(OC)c(/C=C/S(=O)(=O)Cc2ccc(OC)c(NCC(=O)O)c2)c(OC)c1 [Rigosertib (sodium)] (10 µM)
2: [3] | [5]
1: [8] | [10]
0: all other assays above

CC[C@@H]1CN(C(=O)NCC(F)(F)F)C[C@@H]1c1cnc2cnc3[nH]ccc3n12 [Upadacitinib] (10 µM)
0: all assays above

For convenience, two of the compounds above:
O=C(Nc1nc2cccc(-c3ccc(CN4CCS(=O)(=O)CC4)cc3)n2n1)C1CC1 [Filgotinib] (2.5 µM)
0: all assays above

CNS(=O)(=O)C[C@H]1CC[C@H](N(C)c2[nH]cnc3nccc2-3)CC1 [Oclacitinib (maleate)] (10 µM)
0: all assays above

— the supplement of paper PMC12823440, “Inhibitors supercharge kinase turnover through native proteolytic circuits” (Nature, 2025)
